These are yes or no findings as the source states them, for the method shown. In cells and extracts the contact can be indirect. Some entries that bind do so weakly or less than the wild type.
Target: Kinesin family member 5B (human (endogenous in A549 and SK-N-BE(2)C)) (UniProt P33176)
Assay: co-IP; endogenous proteins in A549 and SK-N-BE(2)C lysates; anti-KIF5B or anti-DRP1 antibody; Pierce IP lysis buffer, 4 °C overnight, Dynabeads Protein A; western blotting

Protein sequences, listed by entry. Tags and fused reporters are not part of them.
UniProt P33176: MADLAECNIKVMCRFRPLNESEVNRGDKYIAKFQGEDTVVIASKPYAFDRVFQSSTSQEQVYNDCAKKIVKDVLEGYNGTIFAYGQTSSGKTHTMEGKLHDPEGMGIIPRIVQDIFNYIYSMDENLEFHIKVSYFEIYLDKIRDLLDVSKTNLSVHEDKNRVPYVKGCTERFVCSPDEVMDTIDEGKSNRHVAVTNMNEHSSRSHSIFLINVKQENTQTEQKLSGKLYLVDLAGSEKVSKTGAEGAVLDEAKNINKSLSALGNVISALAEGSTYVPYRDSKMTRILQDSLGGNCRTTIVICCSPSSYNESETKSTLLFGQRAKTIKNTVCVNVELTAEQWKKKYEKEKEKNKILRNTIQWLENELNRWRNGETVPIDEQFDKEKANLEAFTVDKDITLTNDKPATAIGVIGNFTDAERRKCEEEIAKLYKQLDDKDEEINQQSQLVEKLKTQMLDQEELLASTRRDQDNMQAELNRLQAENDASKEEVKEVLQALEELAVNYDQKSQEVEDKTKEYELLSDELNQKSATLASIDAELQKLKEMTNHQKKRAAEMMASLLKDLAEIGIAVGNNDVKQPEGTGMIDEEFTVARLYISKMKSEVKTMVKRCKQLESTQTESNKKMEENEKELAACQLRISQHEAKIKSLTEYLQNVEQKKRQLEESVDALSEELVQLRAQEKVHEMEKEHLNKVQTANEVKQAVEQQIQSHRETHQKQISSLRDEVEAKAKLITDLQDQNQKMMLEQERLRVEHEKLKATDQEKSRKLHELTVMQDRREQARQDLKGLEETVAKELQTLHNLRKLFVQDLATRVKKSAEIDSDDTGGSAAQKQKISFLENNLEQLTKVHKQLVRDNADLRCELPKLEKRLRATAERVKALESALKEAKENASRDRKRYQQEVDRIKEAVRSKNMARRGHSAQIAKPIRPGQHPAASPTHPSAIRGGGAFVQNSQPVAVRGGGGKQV
UniProt O00429: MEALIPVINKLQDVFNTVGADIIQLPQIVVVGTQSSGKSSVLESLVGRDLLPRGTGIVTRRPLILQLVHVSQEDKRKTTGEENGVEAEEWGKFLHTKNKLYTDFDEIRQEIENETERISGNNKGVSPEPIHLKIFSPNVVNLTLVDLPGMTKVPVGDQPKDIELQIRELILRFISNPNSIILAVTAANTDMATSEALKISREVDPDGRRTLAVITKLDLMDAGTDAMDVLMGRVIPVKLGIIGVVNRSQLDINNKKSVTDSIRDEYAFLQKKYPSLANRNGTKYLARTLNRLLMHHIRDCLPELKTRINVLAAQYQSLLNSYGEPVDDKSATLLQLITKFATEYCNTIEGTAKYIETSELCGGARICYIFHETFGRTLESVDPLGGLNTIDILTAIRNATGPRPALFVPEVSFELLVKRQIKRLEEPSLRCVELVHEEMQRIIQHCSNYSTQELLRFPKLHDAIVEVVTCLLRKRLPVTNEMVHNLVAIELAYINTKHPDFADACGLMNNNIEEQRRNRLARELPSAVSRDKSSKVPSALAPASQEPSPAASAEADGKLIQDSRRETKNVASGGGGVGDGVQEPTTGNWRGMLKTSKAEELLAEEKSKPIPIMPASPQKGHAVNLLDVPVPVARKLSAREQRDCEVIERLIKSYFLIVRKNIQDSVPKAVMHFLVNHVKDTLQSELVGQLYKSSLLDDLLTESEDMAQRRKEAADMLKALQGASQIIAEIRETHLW

- binding: binds
Substance: GTPase dynamin-related protein 1 (from UniProt O00429 1-736)

Source: paper PMC10113393
